The source of these data is paper PMC10618106.

Sequences of proteins named here, by UniProt entry; tags and fusion partners are left off.
UniProt P68400: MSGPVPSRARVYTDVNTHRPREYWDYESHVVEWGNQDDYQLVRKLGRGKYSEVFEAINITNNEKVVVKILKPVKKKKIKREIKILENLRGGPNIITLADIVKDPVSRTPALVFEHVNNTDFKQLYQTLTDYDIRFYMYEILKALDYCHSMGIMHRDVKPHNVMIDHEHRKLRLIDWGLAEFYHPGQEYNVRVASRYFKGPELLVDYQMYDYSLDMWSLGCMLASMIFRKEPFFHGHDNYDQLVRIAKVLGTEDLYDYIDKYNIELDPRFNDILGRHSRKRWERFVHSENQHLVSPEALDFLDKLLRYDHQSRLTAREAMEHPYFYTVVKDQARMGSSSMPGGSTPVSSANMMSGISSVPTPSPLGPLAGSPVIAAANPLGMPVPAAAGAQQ

Results are given in words; binding and its absence hold for the method and conditions named. In cells and extracts the contact can be indirect. Here binding means that the protein was enriched with, or labelled near, the bait; the list need not be complete.

Assay [1] has as its target FLAG-tagged CK2α (human), P68400. The assay can be described thus: affinity purification with mass spectrometry; FLAG-CK2α expressed in HEK293; nuclear fractions of cells starved and restimulated with serum to early G1 (6 h) or late G1 (15-16 h); pre-cleared with normal IgG-agarose, anti-FLAG M2 agarose, eluted with FLAG peptide, trypsin, nano-LC MS/MS (Mascot). The note with it: remark: other sources report otherwise.

The target of the next assay is FLAG-tagged CK2α (human) (UniProt P68400). Described as above.

B1: Nucleolar transcription factor 1, P17480 1-764 (protein)
chain: MNGEADCPTDLEMAAPKGQDRWSQEDMLTLLECMKNNLPSNDSSKFKTTESHMDWEKVAFKDFSGDMCKLKWVEISNEVRKFRTLTELILDAQEHVKNPYKGKKLKKHPDFPKKPLTPYFRFFMEKRAKYAKLHPEMSNLDLTKILSKKYKELPEKKKMKYIQDFQREKQEFERNLARFREDHPDLIQNAKKSDIPEKPKTPQQLWYTHEKKVYLKVRPDATTKEVKDSLGKQWSQLSDKKRLKWIHKALEQRKEYEEIMRDYIQKHPELNISEEGITKSTLTKAERQLKDKFDGRPTKPPPNSYSLYCAELMANMKDVPSTERMVLCSQQWKLLSQKEKDAYHKKCDQKKKDYEVELLRFLESLPEEEQQRVLGEEKMLNINKKQATSPASKKPAQEGGKGGSEKPKRPVSAMFIFSEEKRRQLQEERPELSESELTRLLARMWNDLSEKKKAKYKAREAALKAQSERKPGGEREERGKLPESPKRAEEIWQQSVIGDYLARFKNDRVKALKAMEMTWNNMEKKEKLMWIKKAAEDQKRYERELSEMRAPPAATNSSKKMKFQGEPKKPPMNGYQKFSQELLSNGELNHLPLKERMVEIGSRWQRISQSQKEHYKKLAEEQQKQYKVHLDLWVKSLSPQDRAAYKEYISNKRKSMTKLRGPNPKSSRTTLQSKSESEEDDEEDEDDEDEDEEEEDDENGDSSEDGGDSSESSSEDESEDGDENEEDDEDEDDDEDDDEDEDNESEGSSSSSSSSGDSSDSDSN
As to B1, the binding entry in assay [1] is “binds”.

B2: DDX52 (protein, UniProt Q9Y2R4 1-599)
chain: MDVHDLFRRLGAGAKFDTRRFSADAARFQIGKRKYDFDSSEVLQGLDFFGNKKSVPGVCGASQTHQKPQNGEKKEESLTERKREQSKKKRKTMTSEIASQEEGATIQWMSSVEAKIEDKKVQRESKLTSGKLENLRKEKINFLRNKHKIHVQGTDLPDPIATFQQLDQEYKINSRLLQNILDAGFQMPTPIQMQAIPVMLHGRELLASAPTGSGKTLAFSIPILMQLKQPANKGFRALIISPTRELASQIHRELIKISEGTGFRIHMIHKAAVAAKKFGPKSSKKFDILVTTPNRLIYLLKQDPPGIDLASVEWLVVDESDKLFEDGKTGFRDQLASIFLACTSHKVRRAMFSATFAYDVEQWCKLNLDNVISVSIGARNSAVETVEQELLFVGSETGKLLAVRELVKKGFNPPVLVFVQSIERAKELFHELIYEGINVDVIHAERTQQQRDNTVHSFRAGKIWVLICTALLARGIDFKGVNLVINYDFPTSSVEYIHRIGRTGRAGNKGKAITFFTEDDKPLLRSVANVIQQAGCPVPEYIKGFQKLLSKQKKKMIKKPLERESISTTPKCFLEKAKDKQKKVTGQNSKKKVALEDKS
With B2, the binding entry with FLAG-tagged CK2α (human) was “binds”.
